Source: the supplement of paper PMC5949888
Most values lie at the floor of the assay. Slopes are relative: functional sequences can read slightly below zero.

The substances below were run on Saccharomyces cerevisiae PS128 hsf1 delta, HSF1(1-493) fusion (assay: growth estimate (transactivation domain function in HSF1 fusion, heat-shock survival) (a.u. (slope of normalised read count over time)); higher = stronger growth at 37°C, i.e. more transactivation activity). Conditions: library: random library.
QHRT was tested, and the growth estimate was < -0.25. MPGDPVRNV was tested, and the growth estimate was < -0.25. In the case of YCWSFFLVSVANRGKPQLSF, the growth estimate is reported as -0.246. For ERSHGC, the growth estimate was < -0.25. With LGIAAEGDMGRTETLKKWAA the growth estimate was < -0.25. With GLGQCDRVVL the growth estimate was < -0.25. In the case of TWGCSITLTEWILF, the growth estimate is reported as < -0.25. With HNAESS the growth estimate was < -0.25. RTQF was tested, and the growth estimate was -0.231. For FGSGCDRLRYHLKR, the growth estimate was < -0.25. RLWGSCSLGAETGSNGIGSL gave a growth estimate of -0.246. Substance RNAGRHSTDLVLFHLALYRS has a growth estimate of -0.245. NTLER was tested, and the growth estimate was < -0.25. For ATMALSKLHDMEFQHARKVF, the growth estimate was < -0.25. NMSEFRAACGPNPLILSLVA was tested, and the growth estimate was < -0.25. With NLPECRLTGLSSRYRRQAIG the growth estimate was < -0.25. With KLRGRQGCKTV the growth estimate was < -0.25. With SPSCLYEVLGLWVASSL the growth estimate was < -0.25. For DLNNQPLGPN, the growth estimate was < -0.25. In the case of PGPLGKEFTVWVGKLSELVS, the growth estimate is reported as < -0.25. LELELKVLTGSRSCAFRLGL was tested, and the growth estimate was < -0.25. With CLLPTRCLYEHRIQDGICLI the growth estimate was < -0.25. In the case of RGEDI, the growth estimate is reported as < -0.25. For SKIAE, the growth estimate was < -0.25. With RDFQRVE the growth estimate was < -0.25. For QCPWGINYEFVHFGHGGCAK, the growth estimate was < -0.25. In the case of LTEVPAVL, the growth estimate is reported as < -0.25. With TIGQGRRRTKPVPPMSVIDQ the growth estimate was < -0.25. APVNGTGTRIFDTC was tested, and the growth estimate was < -0.25. LGCKATYSTLSMAFL showed a growth estimate of -0.246. In the case of VKPTTWCTWWVVCVSCRSPT, the growth estimate is reported as < -0.25. In the case of HMCVANALSWSRC, the growth estimate is reported as < -0.25. In the case of LLWSVPYSGLGLTASTSAYS, the growth estimate is reported as < -0.25. PYRTYVVCDWLSRFESIQAS was tested, and the growth estimate was < -0.25. For STEGWPLKTIDVRRKRTP, the growth estimate was < -0.25. In the case of GFVDDAYWWL, the growth estimate is reported as < -0.25. For AWSLPPRTSEG, the growth estimate was < -0.25. With FVPSGGHLAYDYVGGPSRNP the growth estimate was < -0.25. In the case of GGWSKVRYCRESRSAETPIS, the growth estimate is reported as < -0.25. With ASTWGTLDLCGYMHIGLLKS the growth estimate was < -0.25. For DRSVLRT, the growth estimate was < -0.25. In the case of PVRENA, the growth estimate is reported as < -0.25. In the case of EEILRSKRSGKLAAPHRVQH, the growth estimate is reported as -0.243. For REKGLNFHLHNRDQPL, the growth estimate was < -0.25. RVWRVNEKVGLLVHHRCVFP was tested, and the growth estimate was < -0.25. For CGITSLAIVPEIVCRPSRPN, the growth estimate was < -0.25. With AAACRARRSC the growth estimate was < -0.25. SPS was tested, and the growth estimate was < -0.25. In the case of PRARCHPHSLLNARFGDWDM, the growth estimate is reported as < -0.25. In the case of AMSVFERNDSYIFLAQSAMH, the growth estimate is reported as < -0.25. With LFIADDWVRPLTQVT the growth estimate was < -0.25. With RDLGTSLRVMNVCPLRIPTG the growth estimate was < -0.25. For LLTLPGSNSGQGALTGNSEV, the growth estimate was -0.248. For ENEGMVGSNTTSFWRLTGRP, the growth estimate was < -0.25. KFDHGPKDLWSVRWSYCAAG showed a growth estimate of -0.219. CRVQGNDVRGAGVVCVRQ was tested, and the growth estimate was < -0.25. With VGSVQGN the growth estimate was < -0.25. For CVNLNAARCAEFELVRGFDG, the growth estimate was < -0.25. With VNLDIMYSGKTGGMQRSNGA the growth estimate was < -0.25. LTR was tested, and the growth estimate was < -0.25. For VMQ, the growth estimate was < -0.25. VQAIARRGAFAMLLFWVTGL was tested, and the growth estimate was < -0.25. For MPMGVS, the growth estimate was < -0.25. In the case of EIVLGSLGNY, the growth estimate is reported as < -0.25. In the case of LSGLDRILRKPEGMVRGCPC, the growth estimate is reported as < -0.25. SVSNRVPGLPPPYNYAPSKH was tested, and the growth estimate was < -0.25. In the case of HTKCSVVDSYAVAQLKTGDY, the growth estimate is reported as < -0.25. QYLKLVRRFGGYFCGCL was tested, and the growth estimate was < -0.25. In the case of KPRILLYRDHQLPIRVYMPV, the growth estimate is reported as < -0.25. In the case of TKVNLANARPLRLIASIIVP, the growth estimate is reported as < -0.25. PRASSYSIFR was tested, and the growth estimate was < -0.25. SGTCAKRLTG was tested, and the growth estimate was < -0.25. With YDFPNEIMMCPTIPLRKRWL the growth estimate was < -0.25. In the case of GPAGHADTVPL, the growth estimate is reported as < -0.25. For RLTVPPVTIIRYKDPPRPGA, the growth estimate was < -0.25. IVSLSRTFDVTRTLVAGHPP was tested, and the growth estimate was < -0.25. With HTVGNELPKEGSSDNAFLRS the growth estimate was < -0.25. For GYEPYGFRLCRAHGIHSTRD, the growth estimate was < -0.25. In the case of NPV, the growth estimate is reported as < -0.25. With VGTCSGQKLKTSRVYGTKLS the growth estimate was < -0.25. NLRTEYHLASKEAYVRFG was tested, and the growth estimate was < -0.25. For YDRNGHHVQGVRRWSSVTEP, the growth estimate was < -0.25. RFWADRTEIK was tested, and the growth estimate was < -0.25. With QGANAA the growth estimate was < -0.25. In the case of DHFSSGYPYSRYPTL, the growth estimate is reported as < -0.25. VWTPTFRPPDRSGVAALLRA was tested, and the growth estimate was < -0.25. For CEFTNVLCPSIAVNQCEPFL, the growth estimate was < -0.25. In the case of NSYATVGRANQPLAILYTRT, the growth estimate is reported as < -0.25. LNFMLSADGTTKRTVTGRDG was tested, and the growth estimate was < -0.25. For VNIFSRNIVKV, the growth estimate was < -0.25. With PIVYTSRLASSKALRQQATR the growth estimate was < -0.25. CFVVVGKS was tested, and the growth estimate was < -0.25. DDKAPRLSYQRHW was tested, and the growth estimate was < -0.25. In the case of RLSPSDIIQEFNSFCLPDLL, the growth estimate is reported as < -0.25. VENGLNHRFWLRQDGRRNLE was tested, and the growth estimate was < -0.25. RPRDIGGS was tested, and the growth estimate was -0.241. For KAPALCRCTGRFLIRKRCPR, the growth estimate was < -0.25. PSRWKCVHLRAGSQGSKTTH was tested, and the growth estimate was < -0.25. For RPPDVLFLVRFRLIATRETM, the growth estimate was < -0.25.
